Among the data in article PMC13483313 are binding values, retold here.

The target in the experiment is vaccinia virus J5 protein, wild type (WT J5) (vaccinia virus (Western Reserve strain)) (UniProt P07618). Briefly: co-IP.

No constants are given. Whether binding was seen depends on the method and setting. Binding seen in cells or lysates may run through a third protein. Some results given as binding are weak or reduced against the parent protein; the word gives no strength.

In the case of “vaccinia virus L5 protein (from UniProt P68623 1-128)”, the binding result is listed as “binds”.
